In patent US12311028B2, “Polymer-based macromolecular prodrugs” (The Children's Hospital of Philadelphia, priority 2018, dated 2025):

Test system: BE(2)C cells
Assay: Antiproliferative effect of [PEG-SN38-BG]8 on BE(2)C with/without vorinostat or entinostat
Format: cell-based, human
Conditions: vorinostat alone, 1-5 μM
Description: FIG. 13: Evaluation of the potentiating effect of vorinostat on the antiproliferative activities of [PEG-SN38-BG]8 and SN-38 ((A) and (B), respectively) in chemoresistant NB cells, BE(2)C. In accordance with vorinostat-induced NET expression reported to peak at 6 hr, an exposure period of 6 hr was chosen for the present experiment. BE(2)C cells were incubated with [PEG-SN38-BG]8 or SN-38 at concentrations equivalent to 25-100 nM of SN-38, with/without vorinostat (1.25-5.0 μM). Cell growth was measured by bioluminescence. BE(2)C cell survival data at 6 days post treatment were analyzed for hyperadditivity by applying a model z=z0+A·x+B·y+C·[x·y] and determining the significance of the interaction term C.
FIG. 14: Antiproliferative effect of [PEG-SN38-BG]8 prodrug on NET-expressing, chemoresistant NB cells, BE(2)C. The effect on cell growth kinetics was studied in comparison to free SN-38 or bipartite [PEG-SN38]8 lacking functionalization with BG (A). Cells were exposed for 4 hr to equivalent concentrations of the compounds, corresponding to 125 nM of SN-38. […] Cell growth was monitored by bioluminescence. […] Experimental data were analyzed for hyperadditivity using a model z=z0+A·x+B·y+C·[x·y] and determining the significance of the interaction term C. […]

O=C(CCCCCCC(=O)Nc1ccccc1)NO [vorinostat]
own BE(2)C cell growth inhibitory effect: only moderate
